Results reported in article PMC12269058.
These are yes or no findings as the source states them, for the method shown. Binding seen in cells or lysates may run through a third protein. Some binding calls cover weakened binding; strength is not graded here.

Target: T1, phosphoglycerate kinase 1 (human (endogenous in HK-2)) (UniProt P00558)
T1 sequence: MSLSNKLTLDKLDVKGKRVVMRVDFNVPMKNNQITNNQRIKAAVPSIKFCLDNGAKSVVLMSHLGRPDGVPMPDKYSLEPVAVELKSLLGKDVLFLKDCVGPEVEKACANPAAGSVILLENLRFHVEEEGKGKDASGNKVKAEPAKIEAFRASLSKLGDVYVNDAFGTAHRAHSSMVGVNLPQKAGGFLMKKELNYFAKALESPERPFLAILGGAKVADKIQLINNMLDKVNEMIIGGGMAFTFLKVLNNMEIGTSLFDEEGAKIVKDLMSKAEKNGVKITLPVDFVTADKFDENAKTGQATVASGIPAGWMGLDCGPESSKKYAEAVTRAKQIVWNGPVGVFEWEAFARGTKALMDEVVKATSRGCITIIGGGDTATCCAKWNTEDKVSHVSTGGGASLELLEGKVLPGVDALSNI
Test: co-IP; total protein of HK-2 cells; primary antibody or IgG overnight at 4°C, Protein A/G agarose beads 2 h at 4°C; western blotting; forward (ACSF2) and reverse (PGK1) precipitation

binding: binds
B1: Acyl-CoA Synthetase family member 2 (protein, UniProt Q96CM8 42-615)
chain: LSSREVDRMVSTPIGGLSYVQGCTKKHLNSKTVGQCLETTAQRVPEREALVVLHEDVRLTFAQLKEEVDKAASGLLSIGLCKGDRLGMWGPNSYAWVLMQLATAQAGIILVSVNPAYQAMELEYVLKKVGCKALVFPKQFKTQQYYNVLKQICPEVENAQPGALKSQRLPDLTTVISVDAPLPGTLLLDEVVAAGSTRQHLDQLQYNQQFLSCHDPINIQFTSGTTGSPKGATLSHYNIVNNSNILGERLKLHEKTPEQLRMILPNPLYHCLGSVAGTMMCLMYGATLILASPIFNGKKALEAISRERGTFLYGTPTMFVDILNQPDFSSYDISTMCGGVIAGSPAPPELIRAIINKINMKDLVVAYGTTENSPVTFAHFPEDTVEQKAESVGRIMPHTEARIMNMEAGTLAKLNTPGELCIRGYCVMLGYWGEPQKTEEAVDQDKWYWTGDVATMNEQGFCKIVGRSKDMIIRGGENIYPAELEDFFHTHPKVQEVQVVGVKDDRMGEEICACIRLKDGEETTVEEIKAFCKGKISHFKIPKYIVFVTNYPLTISGKIQKFKLREQMERHLNL
